Measured values taken from patent publication US5192507A (priority 1991, dated 1993).
Several values for one entry are separate records, joined by “and”; a condition that tells them apart may be missing. Identical values can stand only once. For at least one compound, name, drawing or mass did not settle the structure.

Test system: acetylcholine receptor (AChR)
Assay type: binding, Electrophorus electricus

## CC(=O)OCC[N+](C)(C)C [ACh, acetylcholine]
  change in resistance between control and AChR sensors (in words): dose-dependent change in resistance
  sensor reading after Add Sample: 26.5 K.OMEGA. and 27.2 K.OMEGA. and 17.4 K.OMEGA. and 27.1 K.OMEGA. and 29.5 K.OMEGA. and 16.7 K.OMEGA.
